Mtb growth Cornell: 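Whole-cell assay for inhibitors of Mycobacterium tuberculosis growth, labelled Cornell in the record; the read-out is not stated. The concentration is filed as 10 mM, unlikely as a test dose, so the dose is not known. Higher means stronger inhibition (inferred from two other growth screens of the library). About 53,000 compounds were tested under these conditions; 1.7% (about 900) showed 50% or more at least once.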
Mtb heat-shock: 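Assay on Mycobacterium tuberculosis, filed only as a heat shock assay from Cornell; the read-out is not stated. The concentration is filed as 10 mM, unlikely as a test dose, so the dose is not known. The record gives no direction; compounds that gave an IC50 in retests scored well above the rest, so higher reads as stronger inhibition. Of about 69,000 compounds tested this way, about 930 (1.4%) reached 50% or more in at least one test.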

Each number is a percent effect as filed. The record does not define 0% and 100%; most values in the screen are far below 50% and negative numbers occur (in some assays of this library far below -100). The compounds are a random part of those screened.

{"structure": "Cc1ccccc1CS(=O)(=O)CC(=O)N(C)Cc1ccccc1", "Mtb growth Cornell": 22.43, "Mtb heat-shock": 13.59}
{"structure": "CCCc1nnc(C(=O)N(C)Cc2cnc3ccccn23)o1", "Mtb growth Cornell": -20.32, "Mtb heat-shock": -29.02}
{"structure": "Cc1ncsc1CCN(C)C1CCN(c2ncnc3[nH]cnc23)CC1", "Mtb growth Cornell": -10.86, "Mtb heat-shock": -1.943}
{"structure": "CC(C)(C)n1cc(NC(=O)C2CN(Cc3ccccc3)CCO2)cn1", "stereo": "stereo not drawn", "Mtb growth Cornell": 19.34, "Mtb heat-shock": -40.64}
{"structure": "O=C(c1ccc(Cl)cc1)N1CCc2nc(C(=O)N3CCCC3)sc2CC1", "Mtb growth Cornell": -8.559, "Mtb heat-shock": -8.529}
{"structure": "CCCC(=O)N(CCCN1CCOCC1)c1nc2c(C)ccc(Cl)c2s1.Cl", "Mtb growth Cornell": 110.2, "Mtb heat-shock": 99.14}
{"structure": "CN(Cc1cccc(F)c1)C(=O)CN1CCCC1CCc1ccccc1", "stereo": "stereo not drawn", "Mtb growth Cornell": 61.93, "Mtb heat-shock": 11.26}
{"structure": "Cc1cn[nH]c1C1CCCCN1C(=O)CCN1CCCCCC1", "stereo": "stereo not drawn", "Mtb heat-shock": -3.104}
{"structure": "O=C(Cc1ccc2c(c1)OCC2)Nc1nc(C(F)(F)F)n[nH]1", "Mtb growth Cornell": 6.577, "Mtb heat-shock": -2.248}
{"structure": "c1cnn(CC2CN(CCCOc3ccc4c(c3)OCO4)CCO2)c1", "stereo": "stereo not drawn", "Mtb growth Cornell": 29.39, "Mtb heat-shock": -12.66}
{"structure": "Cc1nccn1C1(C(=O)O)CCN(Cc2ccc3occc3c2)CC1", "Mtb growth Cornell": 18.61, "Mtb heat-shock": 3.915}
{"structure": "Cc1ccc2cc(C(=O)NCCN3CCS(=O)(=O)CC3)c(C)nc2c1", "Mtb heat-shock": 96.87}
{"structure": "CCC1c2ccsc2CCN1C(=O)NCCNc1ncccn1", "stereo": "stereo not drawn", "Mtb growth Cornell": 8.341, "Mtb heat-shock": 32.87}
{"structure": "O=C(Nc1ccnn1Cc1ccccc1Cl)C1CCS(=O)(=O)C1", "stereo": "stereo not drawn", "Mtb growth Cornell": -5.645, "Mtb heat-shock": -0.0239}
{"structure": "Cc1cnn(CC2CCCN2C(=O)c2ccccc2-n2cnnn2)c1", "stereo": "stereo not drawn", "Mtb growth Cornell": 11.14, "Mtb heat-shock": -5.136}
{"structure": "O=C(C1CCCO1)N1CCC2(CC1)COCCN2CC1CC1", "stereo": "stereo not drawn", "Mtb growth Cornell": 8.604, "Mtb heat-shock": 1.448}
{"structure": "Cc1cnn(CCNCc2ccc(C#N)cc2F)c1", "Mtb growth Cornell": 9.95, "Mtb heat-shock": 7.794}
{"structure": "CCc1noc(C(C)N2CCN(c3ccc(C#N)cn3)CC2)n1", "stereo": "stereo not drawn", "Mtb growth Cornell": -10.8, "Mtb heat-shock": -18.76}
{"structure": "CCC(NC(=O)C1CCN(S(=O)(=O)N(C)C)CC1)c1ccc(C)c(C)c1", "stereo": "stereo not drawn", "Mtb growth Cornell": 19.14, "Mtb heat-shock": -25.16}
{"structure": "CC(C)c1n[nH]c(C2CN(C(=O)c3cccc4cn[nH]c34)CCO2)n1", "stereo": "stereo not drawn", "Mtb growth Cornell": 7.505, "Mtb heat-shock": -17.2}
{"structure": "Fc1ccc(-c2noc(C3COCCO3)n2)cc1F", "stereo": "stereo not drawn", "Mtb growth Cornell": -35.74, "Mtb heat-shock": -0.7016}
{"structure": "CC(C)=CCN1Cc2nnc(C3CCOCC3)n2C(Cc2c[nH]cn2)C1", "stereo": "stereo not drawn", "Mtb growth Cornell": -19.19, "Mtb heat-shock": 9.174}
{"structure": "Cn1ccnc1CN1CCN(c2ncnc3ccsc23)CC1", "Mtb growth Cornell": -28.05, "Mtb heat-shock": 10.29}
{"structure": "COc1cc(C2(C(=O)NC3CCN(C4CC4)CC3)CC2)ccc1C", "Mtb growth Cornell": -33.88, "Mtb heat-shock": -3.254}
{"structure": "O=C(Nc1ccc2c(ccn2CCN2CCOCC2)c1)c1ccccn1", "Mtb growth Cornell": -0.6503, "Mtb heat-shock": -20.78}
{"structure": "CN(C)C(=O)N1CCOCC2(CCN(c3ncccn3)C2)C1.O=C(O)C(F)(F)F", "stereo": "stereo not drawn", "Mtb growth Cornell": 13.15, "Mtb heat-shock": -14.57}
{"structure": "Cn1cc(CN2CC3(CCN(C(=O)c4cscn4)C3)C2)cn1", "Mtb growth Cornell": 25.53, "Mtb heat-shock": -7.668}

The first 2 entries again:

structure,Mtb growth Cornell,Mtb heat-shock
Cc1ccccc1CS(=O)(=O)CC(=O)N(C)Cc1ccccc1,22.43%,13.59%
CCCc1nnc(C(=O)N(C)Cc2cnc3ccccn23)o1,-20.32%,-29.02%

Measurements from “University of Dundee, Small-Polar-MMV Screening Library” (2021), ChEMBL document CHEMBL3988442.